This is an account of results in PubChem BioAssay AID1508600 (Functional Genomics Laboratory (NCATS/FGL), 2020).

Hit rate of the full screen: of about 53,000 sequences, about 3,700 (7%) were called active.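 Rule for the calls: active = gene knockdowns whose robust z-score for IL-1 alpha signal is at least 2 or at most -2, so actives lie on both sides; inactive = the rest.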 The list shows a part of the results.

The nature of the experiment: Components of the Cytosolic LPS Sensing Pathway: Gene Identification via Genome-wide siRNA Screen.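 Note: robust z of the log signal after scaling to non-targeting control siRNA wells of the plate.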 The following applies: RAW264.7 macrophages, IL-1a HTRF, actives lie on both sides, screened at 100 nM (by protocol), cells primed 5 h with Pam3CSK4 first. Summed up: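 RAW264.7; siRNA 100 nM final, RNAiMAX, 48h 37 degrees C; Pam3CSK4 5 h; LipidA + TransIT-TKO 24 h; IL-1a HTRF; CellTiter-Glo viability; robust z vs negative-control median.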
(Time-resolved FRET reads energy transfer from a long-lived donor to a nearby acceptor.)
On to GGAUGAAAAUCAAAGAAGUTT against Sfrp1, for which the z-score is inactive: -0.315.
Next, CCAGGAUACGGUGUGGUAUTT against Prss21: inactive: -0.355; GGUGUUGGCUCACAACCAATT against Fam234b: inactive: -1.67.
Next, GGAAGAAUGGUUAAAGGGATT against Dcun1d5: inactive: 0.609; “GGCAGCUAUUGCUCUGGAATT against 5730596B20Rik”: inactive: -0.293.
Next, GGUAGAUAUCCUUGAGUACTT against Mettl7a1: inactive: 0.81.
For the sequence CCAUUAAUGCAGACACUACTT against Amy2a5, the z-score was inactive: -0.909.
Under GCAGAAAGAAUGCAGAUAATT against Zfp281 stands inactive: 0.777; under GGAUACUCUGGAGAAGUGUTT against Fblim1, inactive: -0.785.
Under GUGUCUUGGGAAACAACUUTT against Gchfr stands inactive: 1.67.
For GGAGUAUGAAUUUGUGACUTT against Arhgdig, the z-score is inactive: -0.526.
For the sequence GGAAGUAAACCUUCAUGAATT against Cd40lg, the z-score was inactive: 0.911.
Under GGUUCUCAGUCAUAUUUACTT against Fbxl12 stands inactive: 1.08; under CCAGUUUAUUGAGAAUAAGTT against Rab4b, inactive: 0.531.
Next, GCAUUGUGGAACAAACCUATT against Gabpa: inactive: 0.929.
Next, GGCCACCUUGUGUUUAUCUTT against Lrg1: inactive: -1.57.
Consider GGGAUACUGGUGCUUAACUTT against Abhd1, for which the z-score is inactive: -0.189.
Under CGAAAGGGAGAAAUUUGCUTT against Cemip stands inactive: 0.0398.
Next, GGAGAGUAAAUACCGACAGTT against Homer2: inactive: -0.133.
Under GGAACGAGAAGAAAUUUAGTT against Pbld2 stands inactive: -1.1; under GGUUCCUAAACAUACUUGUTT against Swi5, inactive: 0.478; under GGAAGUAUUUGAUCAUGGATT against Smarca5, inactive: -0.465.
Regarding GGAAGACUGGUACACAUAATT against Tmem43, the z-score is active: -2.32.
For the sequence CGAAGUUCAUUCCUGUCUATT against Myf6, the z-score is inactive: -0.664.
Under GGUGAAGUGGAAGAUUCGGTT against Ror2 stands inactive: -1.05; under GGACAUCAAGCCCUUACCATT against Rxrg, inactive: -1.96; under GGAGACCAAAUGCUAGACGTT against Fam32a, inactive: -1.67.
Regarding GGCUCCAAAUCAAACUCUATT against Eif4e3, the z-score is active: 2.19.
Under GCCUGUGCAAAAAGUAGGGTT against Grasp stands inactive: -0.0182.
In the case of GGGAUGAGAAAGAUGUGCCTT against Cracd, the z-score is inactive: 0.051.
In the case of “GGUACCACCAUGCUAUGGUTT against Krtap19-9b”, the z-score is inactive: 0.646.
Under GCAGAAAAUACCCAGUUUGTT against Hmox2 stands inactive: -0.841.
Next, GGCUGAGUGCUUCUAUCGUTT against Fam135b: inactive: -0.993; GGAAAAUCAACAGCAUCAATT against Olfr661: inactive: -0.642; GGUGUGUGAACCAUGUGUGTT against Olfr157: inactive: -1.03.
Under GGAAGUCCAUCUCUUUUGCTT against Olfr56 stands inactive: 0.213; under GCAAUCCUAUUUGAUGACUTT against Ninj2, inactive: -1.28.
For the sequence GCAUCGAAGAGUACCUUCATT against Zeb2, the z-score is inactive: -0.435.
Regarding GGAUUUCAACUUGUUCUAUTT against Mmp1b, the z-score is inactive: 1.72.
Under CCACAGAGCUGGUGUAAAGTT against Tlx2 stands inactive: -0.347; under GGAUACAGUUAAGAGAUAUTT against Xpr1, inactive: -1.34; under GCUUGAUUUGACCACGCUGTT against Tmem59l, inactive: -0.0828.
GGCCUAUCUUGUUUAUUUGTT against Tgtp1: the z-score is inactive: -0.316.
As for GGAAGAAAAUGAGAGCACUTT against Mucl1, the z-score is inactive: -0.894.
Under CCAUUACGAAUUUUGCUUUTT against Serpina11 stands inactive: 0.546.
Under GCUGGUAAACAUAGGUGGCTT against C1qtnf4 stands active: 2.18.
Under GGAUCGCUUAGUCUCAUGATT against Inip stands inactive: -0.493; under GGAGUUCCUGAGACAGUACTT against Mcm5, inactive: 0.112; under GGAAAACUACCUCUUUUGATT against Cbll1, inactive: 1.4.
Regarding GGCAUUUCAACUGGACCCATT against Lamb1, the z-score is active: -2.
Next, CCAGAGUUCUGGGAUUCCATT against Cyp2c66: inactive: -0.948.
Next, GGAUCAGACCAAACUUCAATT against Glrb: inactive: 1.38; GGCAUAGUAAUCGAGUACUTT against Dzip1l: inactive: -0.389; GGAUCCUGUCAAAGAUAAUTT against Zfp592: inactive: -0.294.
Take CGCAUUAUGAAUGACUACUTT against Svs1: the z-score is inactive: -0.0778.
Next, GGUCUUUGGACCCUGUUUGTT against Tor1b: inactive: 1.11; GGACACACAUUCUUACAAATT against Plpp1: inactive: -1.17; GGAAGUUGAAAGACUUACGTT against Tnip2: inactive: -0.185.
Next, CGGGAUACUUUAAAGAACATT against Sem1: inactive: -1.07; GCACAGUAACCUAAAAUACTT against Tanc2: inactive: -1.48; CCCAAGCGGUAUCAUAUUUTT against Swt1: inactive: 0.168.
Under GGUGGAAAAGCCUUACAGATT against Sry stands inactive: 0.731; under GGUUGUUUUUUGAUACUGATT against Pramel12, inactive: -1.32; under CCGCUCACAACUUCUACAGTT against Prickle3, inactive: 0.153.
For the sequence CCCGGAGCUUGAAUUACUGTT against Usp7, the z-score is active: 2.36.
Under GGACUGAAGAUCAUAUUCATT against Prl3b1 stands inactive: 0.15; under GGAAUCUCCGAAGCAUGAATT against Sorbs1, inactive: 0.696; under GGCCAACAAGCAGGUUUUUTT against Rmc1, inactive: 1.89.
